# Measured values from PubChem BioAssay AID1261 (University of Pittsburgh Molecular Library Screening Center, 2008).
# The other results are listed elsewhere or left out. These are further read-outs of the screen, such as a control signal, another cell line or another target. No call is given for them.
# System: Tyrosine-protein phosphatase YopH [Yersinia enterocolitica]
# Assay: potency against Yersinia YopH phosphatase – biochemical, 10-point dose range, dose response (AID 1261)
# Settings: YopH phosphatase enzymatic assay, IC50, 3 runs, at 50 µM, stronger effect = higher value
row,SMILES,inhibition [%]
1,COc1ccccc1NC1=C(N2CCCCC2)C(=O)c2ccccc2C1=O,49.4
2,O=C1C=CC(=O)C(C2=C3C(=O)N(CCc4ccccc4)CC(=O)N3CCC2)=C1,39.9
3,COc1ccc(N=CC2=C(Nc3ccc(OC)cc3)c3c(C)nn(-c4ccccn4)c3CC2)cc1,48.7
4,CN1c2ccccc2N(C)C1(C)c1ccccc1,45.4
5,O=C1C2=C(c3ccccc31)[N+](=O)[C@@H]1CCCC[C@@H]1N2[O-],47.2
6,CCN1c2ccccc2N(C)C1(C)c1ccccc1 (stereo unspecified),47.9

# A second format for 2 compounds above:
row	SMILES	inhibition [%]
3	COc1ccc(N=CC2=C(Nc3ccc(OC)cc3)c3c(C)nn(-c4ccccn4)c3CC2)cc1	48.7
4	CN1c2ccccc2N(C)C1(C)c1ccccc1	45.4
